# Experimental data: PubChem BioAssay AID1224826 (NIAID, 2016)
# Assay: 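Genes that change LPS-induced Tnf promoter activity in mouse macrophages when knocked down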 (primary screen)
# Cells: RAW264.7 G9 macrophages from mouse bearing reporters for p65 (GFP) and the Tnf promoter (mCherry)
# Reagent: siRNA pool against mouse genes, 100 nM
# Timing: 16 h of LPS stimulation, after 2 days of siRNA transfection
# Challenge: bacterial lipopolysaccharide (Salmonella minnesota R595), 10 ng/ml
# Read-out: 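Nuclear mCherry signal of the Tnf promoter reporter measured by imaging after background removal, scaled to each plate median and turned into robust z-scores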
# Scale: Tnf reporter robust z-score: higher = stronger Tnf promoter reporter signal after LPS; Tnf reporter intensity: higher = stronger Tnf promoter reporter signal
# Hit rule: 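Called active when robust z-score is at most -1.3, matching the median of the Tlr4 knock-down control, or over 3; control wells and wells with under 50 cells never active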
# Calls: active = Tnf reporter clearly lowered or raised; inactive = no clear change in Tnf reporter
# In all, the deposit lists about 17,000 reagents; below is a random part of them. Over the whole deposit, about 1,110 (6.6%) are marked active. 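Active means lowered or raised reporter signal; replicate intensities are raw and not normalised per plate.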 A number with no mark means an inactive call.
Tnf reporter robust z-score,fewer than 50 cells in well,"Tnf reporter intensity, replicate 1","Tnf reporter intensity, replicate 2",gene knocked down
-0.47,enough cells in well,158,130,Acvr1b (GeneID 11479)
1.24,enough cells in well,242,239,Ccnl2 (GeneID 56036)
-0.15,enough cells in well,184,67.9,Wipf2 (GeneID 68524)
1.04,enough cells in well,307,284,Cyp2c54 (GeneID 404195)
0.45,enough cells in well,280,248,Opa3 (GeneID 403187)
-0.88,enough cells in well,140,137,AF085738 (retired record) (GeneID 192158)
1.68,enough cells in well,336,177,Mob3c (GeneID 100465)
-0.31,enough cells in well,198,171,Stpg2 (GeneID 381476)
-0.13,enough cells in well,198,99.8,Erlec1 (GeneID 66753)
,fewer than 50 cells per well; well left out of calls,8.97,288,Bglap (GeneID 12096)
-1.35 (active),enough cells in well,91.8,93.5,Cdv3 (GeneID 321022)
-1.33 (active),enough cells in well,136,90.1,Hpn (GeneID 15451)
-0.36,enough cells in well,141,83.1,Sspo (GeneID 243369)
-0.97,enough cells in well,122,104,Adh4 (GeneID 26876)
-0.2,enough cells in well,228,198,Tssc4 (GeneID 56844)
-0.74,enough cells in well,205,117,Hr (GeneID 15460)
0.45,enough cells in well,230,273,Ppbp (GeneID 57349)
,fewer than 50 cells per well; well left out of calls,43.7,45.2,Vmn1r42 (GeneID 113848)
,fewer than 50 cells per well; well left out of calls,129,36.8,Sec24c (GeneID 218811)
1.02,enough cells in well,261,188,Atg7 (GeneID 74244)
-1.02,enough cells in well,79.8,90,Pop5 (GeneID 117109)
0.92,enough cells in well,181,96.3,Vps39 (GeneID 269338)
-0.96,enough cells in well,190,102,Igfbp7 (GeneID 29817)
,fewer than 50 cells per well; well left out of calls,83.4,20.4,Lce1i (GeneID 76585)
0.39,enough cells in well,197,170,Hecw2 (GeneID 329152)
-0.65,enough cells in well,152,99.3,Eogt (GeneID 101351)
-0.43,enough cells in well,273,163,Hey2 (GeneID 15214)
-0.08,enough cells in well,177,151,Or8h7 (GeneID 258840)
0,enough cells in well,263,229,Srf (GeneID 20807)
,fewer than 50 cells per well; well left out of calls,90.5,72.2,Prss40 (GeneID 21756)
0.24,enough cells in well,233,266,Tnrc18 (GeneID 231861)
,fewer than 50 cells per well; well left out of calls,99.4,36.6,1700008J07RIK
1.45,enough cells in well,188,182,Zfp61 (GeneID 22719)
,fewer than 50 cells per well; well left out of calls,120,40.2,Fam162a (GeneID 70186)
1.23,enough cells in well,290,65,Rhbdd1 (GeneID 76867)
-0.41,enough cells in well,152,123,Klrb1a (GeneID 17057)
-0.07,enough cells in well,314,191,Reln (GeneID 19699)
0.45,enough cells in well,303,205,Ppox (GeneID 19044)
0.6,enough cells in well,195,86.8,Cyb5rl (GeneID 230582)
-1.14,enough cells in well,141,112,Paral1 (GeneID 228642)

7 entries from above, arranged by “Tnf reporter intensity, replicate 1”, descending:
Tnf reporter robust z-score,fewer than 50 cells in well,"Tnf reporter intensity, replicate 1","Tnf reporter intensity, replicate 2",gene knocked down
1.02,enough cells in well,261,188,Atg7 (GeneID 74244)
0.45,enough cells in well,230,273,Ppbp (GeneID 57349)
-0.96,enough cells in well,190,102,Igfbp7 (GeneID 29817)
0.92,enough cells in well,181,96.3,Vps39 (GeneID 269338)
,fewer than 50 cells per well; well left out of calls,129,36.8,Sec24c (GeneID 218811)
-1.02,enough cells in well,79.8,90,Pop5 (GeneID 117109)
,fewer than 50 cells per well; well left out of calls,43.7,45.2,Vmn1r42 (GeneID 113848)
